PubChem BioAssay AID743121, NCATS | 2013
Here is one part, drawn at random, of about 26,000 reagents tested. Over the whole deposit, 167 (0.63%) got an active call. 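Calls are per gene from RSA p-values that are not deposited; an individual active-marked siRNA can sensitise only weakly.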 Reagents against one gene are numbered here. Reagent sequences are not shown.

- Screen: 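Partners whose loss is lethal together with topoisomerase I blockade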 (primary screen)
- Cells: MDA-MB-231 cells, a human breast cancer line
- Reagents: single siRNA against human genes, 20 nM siRNA (0.8 pmol per well)
- Timing: 120 h (drug added 48 h after transfection, read 72 h later)
- Treatment: camptothecin 20 nM (about EC30) for 72 h; vehicle 0.1% DMSO in parallel plates
- Measured: 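Cell viability by ATP luminescence (CellTiter-Glo) as % of non-targeting siRNA wells, and the log2 ratio of viability without drug over viability with camptothecin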
- Direction: log2 vehicle/camptothecin viability: higher = stronger sensitisation to camptothecin; viability with camptothecin and viability without drug: higher = more viable cells
- Call rule: 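Active genes have an RSA gene-level p-value below 0.001, computed from the ratios of their separate siRNAs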

| target | siRNA no. | log2 vehicle/camptothecin viability | viability with camptothecin (% of control) | viability without drug (% of control) | Outcome |
| --- | --- | --- | --- | --- | --- |
| CXCL11 (C-X-C motif chemokine ligand 11) | 1 | -0.142 | 74.1 | 67.2 | inactive |
| CXCL11 (C-X-C motif chemokine ligand 11) | 2 | -0.164 | 56.1 | 50.1 | inactive |
| CXCL11 (C-X-C motif chemokine ligand 11) | 3 | -0.145 | 104 | 93.9 | inactive |
| CXCL11 (C-X-C motif chemokine ligand 11) | 4 | -0.336 | 110 | 87 | inactive |
| PNLIPRP1 (pancreatic lipase related protein 1) | 1 | -0.362 | 96.6 | 75.2 | inactive |
| PNLIPRP1 (pancreatic lipase related protein 1) | 2 | 0.168 | 86.4 | 97 | inactive |
| PNLIPRP1 (pancreatic lipase related protein 1) | 3 | -0.0237 | 42.9 | 42.2 | inactive |
| PNLIPRP1 (pancreatic lipase related protein 1) | 4 | 1.49 | 24.9 | 70 | inactive |
| VCAM1 (vascular cell adhesion molecule 1) | 1 | -0.209 | 74.1 | 64.1 | inactive |
| VCAM1 (vascular cell adhesion molecule 1) | 2 | 0.202 | 73 | 83.9 | inactive |
| VCAM1 (vascular cell adhesion molecule 1) | 3 | 0.189 | 76.6 | 87.3 | inactive |
| VCAM1 (vascular cell adhesion molecule 1) | 4 | -0.0355 | 92.3 | 90 | inactive |
| ACAD10 (acyl-CoA dehydrogenase family member 10) | 1 | 0.0805 | 95.6 | 101 | inactive |
| ACAD10 (acyl-CoA dehydrogenase family member 10) | 2 | -0.4 | 51 | 38.6 | inactive |
| ACAD10 (acyl-CoA dehydrogenase family member 10) | 3 | -0.0891 | 94.8 | 89.1 | inactive |
| ACAD10 (acyl-CoA dehydrogenase family member 10) | 4 | -0.122 | 78.5 | 72.1 | inactive |
| KCNE2 | 1 | -0.275 | 80.4 | 66.4 | inactive |
| KCNE2 | 2 | -0.263 | 98 | 81.6 | inactive |
| KCNE2 | 3 | -0.112 | 62.5 | 57.8 | inactive |
| KCNE2 | 4 | -0.0315 | 84.9 | 83 | inactive |
| FRAT1 (FRAT regulator of Wnt signaling pathway 1) | 1 | -0.501 | 74 | 52.3 | inactive |
| FRAT1 (FRAT regulator of Wnt signaling pathway 1) | 2 | -0.0757 | 59.7 | 56.7 | inactive |
| FRAT1 (FRAT regulator of Wnt signaling pathway 1) | 3 | -0.337 | 86.3 | 68.3 | inactive |
| FRAT1 (FRAT regulator of Wnt signaling pathway 1) | 4 | -0.419 | 74.2 | 55.5 | inactive |
| MST1 (macrophage stimulating 1) | 1 | -0.337 | 85.6 | 67.7 | inactive |
| MST1 (macrophage stimulating 1) | 2 | -0.536 | 19.5 | 13.4 | inactive |
| MST1 (macrophage stimulating 1) | 3 | -0.173 | 111 | 98.1 | inactive |
| PMAIP1 (phorbol-12-myristate-13-acetate-induced protein 1) | 1 | -0.502 | 82.8 | 58.5 | inactive |
| PMAIP1 (phorbol-12-myristate-13-acetate-induced protein 1) | 2 | -0.832 | 75.8 | 42.6 | inactive |
| PMAIP1 (phorbol-12-myristate-13-acetate-induced protein 1) | 3 | -0.147 | 117 | 106 | inactive |
| PMAIP1 (phorbol-12-myristate-13-acetate-induced protein 1) | 4 | -0.532 | 62.5 | 43.3 | inactive |
| KCNJ3 (potassium inwardly rectifying channel subfamily J member 3) | 1 | -0.105 | 87.6 | 81.4 | inactive |
| KCNJ3 (potassium inwardly rectifying channel subfamily J member 3) | 2 | 0.0563 | 21.6 | 22.4 | inactive |
| KCNJ3 (potassium inwardly rectifying channel subfamily J member 3) | 3 | -0.0525 | 23.9 | 23.1 | inactive |
| TRIM10 (tripartite motif containing 10) | 1 | 0.128 | 48.9 | 53.5 | inactive |
| TRIM10 (tripartite motif containing 10) | 2 | -0.553 | 67.7 | 46.1 | inactive |
| TRIM10 (tripartite motif containing 10) | 3 | -0.0821 | 80.5 | 76.1 | inactive |
| TRIM10 (tripartite motif containing 10) | 4 | 0.085 | 78.8 | 83.6 | inactive |
| EFEMP2 (EGF-like fibulin extracellular matrix protein 2) | 1 | -0.358 | 44.8 | 34.9 | inactive |
| EFEMP2 (EGF-like fibulin extracellular matrix protein 2) | 2 | 0.0444 | 82.5 | 85.1 | inactive |
| EFEMP2 (EGF-like fibulin extracellular matrix protein 2) | 3 | 0.0172 | 89.4 | 90.5 | inactive |
| EFEMP2 (EGF-like fibulin extracellular matrix protein 2) | 4 | -0.276 | 100 | 83 | inactive |
| GJB1 (gap junction protein beta 1) | 1 | 0.337 | 38.1 | 48.1 | inactive |
| GJB1 (gap junction protein beta 1) | 2 | 0.0385 | 49.9 | 51.2 | inactive |
| GJB1 (gap junction protein beta 1) | 3 | 0.745 | 39 | 65.4 | inactive |
| GJB1 (gap junction protein beta 1) | 4 | -0.323 | 73 | 58.4 | inactive |
